Measurements published in PubChem BioAssay AID540275 (National Center for Advancing Translational Sciences (NCATS), 2011).
The whole screen tested about 320,000 compounds, of which about 620 (0.19%) were called active. Inconclusive results, whose numbers are uncertain, are shown with a selection of clear calls. No stated cut-off is given here; in the data, active means activation above about 80%; inconclusive means between about 30% and that limit; inactive means weaker than that.

Amino acid sequences for entries named in this document (tags omitted).
UniProt Q8NER1, whole entry, looked up: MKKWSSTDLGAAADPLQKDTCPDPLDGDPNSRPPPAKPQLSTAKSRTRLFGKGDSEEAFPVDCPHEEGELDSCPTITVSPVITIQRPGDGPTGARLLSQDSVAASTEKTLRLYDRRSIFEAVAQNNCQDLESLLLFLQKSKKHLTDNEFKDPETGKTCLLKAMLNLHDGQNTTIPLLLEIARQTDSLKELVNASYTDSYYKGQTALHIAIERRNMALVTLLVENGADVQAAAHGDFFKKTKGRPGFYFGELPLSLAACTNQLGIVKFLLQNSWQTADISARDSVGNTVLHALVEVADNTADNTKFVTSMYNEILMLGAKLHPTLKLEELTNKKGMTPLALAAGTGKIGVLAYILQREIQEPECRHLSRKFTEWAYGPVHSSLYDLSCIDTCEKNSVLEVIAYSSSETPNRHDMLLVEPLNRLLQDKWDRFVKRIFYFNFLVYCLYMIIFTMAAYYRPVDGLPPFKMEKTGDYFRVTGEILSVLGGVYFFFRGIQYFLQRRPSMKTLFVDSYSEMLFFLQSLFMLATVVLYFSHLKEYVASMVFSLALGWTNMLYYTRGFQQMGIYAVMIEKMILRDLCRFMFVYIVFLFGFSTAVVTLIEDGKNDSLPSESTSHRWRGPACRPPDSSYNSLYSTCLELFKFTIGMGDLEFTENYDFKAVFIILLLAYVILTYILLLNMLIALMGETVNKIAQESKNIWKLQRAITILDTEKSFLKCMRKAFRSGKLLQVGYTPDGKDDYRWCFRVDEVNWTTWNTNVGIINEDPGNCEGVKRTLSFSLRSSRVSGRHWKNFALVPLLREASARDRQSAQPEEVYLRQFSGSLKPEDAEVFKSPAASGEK

What follows are compounds tested against Transient receptor potential cation channel subfamily V member 1 (Homo sapiens) (UniProt Q8NER1) (assay: HTS Assay for Compounds that Act as Agonists of the Vanilloid Receptor 1). Conditions: TRPV1-expressing cells, Fluo-8 calcium influx, agonist mode; at 8.33 µM, hits give high values.
Method in brief: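 TRPV1-expressing cells were cultured overnight at 35.5C and loaded with Fluo-8 calcium dye for 40 to 90 min at room temperature. After a 10 s baseline, compound was added and calcium influx was read kinetically for 3 min (ex 480/em 520 nm).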
Further: 0% is about no effect.

Structure (SMILES) | activation
CCOc1ccc(/C=C2/SC(=S)N(n3c(C)ccc3C)C2=O)cc1 | inactive: -2.97%
CC(Sc1nc2cc([N+](=O)[O-])ccc2n1-c1cccc(C(F)(F)F)c1)C(=O)NC(N)=O (stereo not drawn) | inconclusive: 41.3%
O=C(Nc1ccc([N+](=O)[O-])cc1)c1ccccc1F | inconclusive: 31.2%
O=C(Nc1ccc(Cl)cc1)Nc1nc(-c2sccc2Br)cs1 | inactive: 1.9%
CCCN(CC(=O)Nc1cc(Cl)ccc1Cl)C(=O)/C=C/c1ccco1 | inconclusive: 49.4%
O=C(NNc1ccccc1[N+](=O)[O-])NC1CCCCC1 | inactive: -0.282%
NS(=O)(=O)c1cc(C(=O)OC2CCOC2=O)ccc1Cl (stereo not drawn) | inactive: 0.0869%
CCOc1c(Br)cc(/C=N\NC(=O)c2ccccc2)cc1OC | inconclusive: 41.1%
CNC(=O)c1ccc(Nc2nnc(C)c3ccccc23)cc1 | inactive: -5.28%
CC(NC(=O)Nc1ccc(O)cc1)(C(F)(F)F)C(F)(F)F | inconclusive: 47%
CCCOC(=O)c1[nH]c2c(c1C)C(=O)CC(c1cccs1)C2 (stereo not drawn) | inconclusive: 30.5%
O=C(CN1CCCCC1)Nc1ccc(N2CCCCCC2)cc1 | inconclusive: 41.6%
CCOC(=O)c1c(NC(=O)CSc2n[nH]c(N)n2)sc(CC)c1C | inconclusive: 33%
COc1ccc2ccccc2c1/C=N/NC(=O)c1cccc(Br)c1 | inactive: 0.0212%
CCc1ccc(C(C)NC(=O)/C=C/c2ccc(Br)cc2)cc1 (stereo not drawn) | inconclusive: 62.1%
COc1cccc(CNC(=O)CCCn2ccc3cc(S(=O)(=O)N4CCCC4)ccc32)c1 | inconclusive: 73.5%
Cc1ccc(C(C)(C)NC(=O)C2CCC(=O)N(CC3CCCCC3)C2)cc1 (stereo not drawn) | inactive: 1.61%
CCN(CC)c1ccc(/C=C(\C#N)C(=O)c2ccc(Br)cc2)cc1 | inconclusive: 59.9%
Cc1ccc(C2CC(=O)c3cnc(NC(=O)c4ccco4)nc3C2)cc1 (stereo not drawn) | inconclusive: 52.8%
COc1cc(O)c(C(CCN2CCN(c3ccccc3)CC2)c2cc(OC)c(OC)c(OC)c2)c(OC)c1 (stereo not drawn) | inactive: -2.19%

3 structures out of the list, sorted by number of heavy atoms, rising.
Structure (SMILES) | activation
O=C(CN1CCCCC1)Nc1ccc(N2CCCCCC2)cc1 | inconclusive: 41.6%
CCOC(=O)c1c(NC(=O)CSc2n[nH]c(N)n2)sc(CC)c1C | inconclusive: 33%
Cc1ccc(C2CC(=O)c3cnc(NC(=O)c4ccco4)nc3C2)cc1 (stereo not drawn) | inconclusive: 52.8%

Later entries:

Structure (SMILES) | activation
CCN(CC)C(=O)c1cn(-c2ccccc2)nc1-c1ccc2c(c1)OCCO2 | inconclusive: 33.5%
CS(=O)(=O)N1CCC(Oc2ccccc2C(=O)NC2CCCCCC2)CC1 | inconclusive: 31.2%
COc1ccc(Nc2c(-c3ccc(OC)cc3)nc3cnccn23)cc1 | inactive: 3.13%
COc1cc(C)ccc1OCC(=O)NC1CCCCCC1 | inconclusive: 35.6%
Cc1ccccc1/C=C1\CCCc2ccccc2C1=O | inconclusive: 41%
O=C(Nc1ccc(F)cc1)Nc1cccnc1Cl | inconclusive: 64.7%
Cc1cc(C)c(OCC(=O)N2CC=C(c3ccccc3)CC2)c(C)c1 | inconclusive: 33.2%
CCOC(=O)c1ccc(NC(=S)NCCc2ccccc2F)cc1 | inconclusive: 34.9%
CC(C)C(=O)NC(=S)Nc1ccc(S(=O)(=O)N2CCN(C)CC2)cc1 | inactive: -3.97%
CC(C)c1ccc(C(C)NC(=S)NC2CCCCC2)cc1 (stereo not drawn) | inconclusive: 45.8%
Cc1cccc(NC(=O)CCc2ccc(C)o2)c1 | inconclusive: 30.5%
O=C(Nc1cccc([N+](=O)[O-])c1)NC1CCCCCCC1 | inconclusive: 68.4%
CCOc1ncccc1C(=O)N1CCN(c2cccc(C)c2C)CC1 | inconclusive: 39.9%
O=C(Nc1nc(-c2ccccc2)cs1)NC1CCCCC1 | inconclusive: 65.5%
Cc1nn(CC(=O)Nc2ccc3c(c2)nc2n3CCN(C3CCCCC3)C2)c(=O)c2ccccc12 | inactive: 3.02%
C[C@@H](C(=O)NCC1CC1)[C@H]1C[C@]1(C)[C@H](NC(=O)OCc1ccccc1)c1ccccc1 | inconclusive: 37.9%
O=C(c1cc(S(=O)(=O)N2CCOCC2)ccc1Cl)N1CCc2ccccc2C1 | inconclusive: 51.4%
Cc1ccc(S(=O)(=O)NC(C(=O)N2CCN(S(=O)(=O)c3cccc(F)c3)CC2)C(C)C)cc1 (stereo not drawn) | inactive: -0.608%
N#C/C(=N\Nc1ccc(Cl)cc1)C(=N)N1CCCCCC1 | inconclusive: 53.7%
CCOc1ccc(-c2nnc(-c3ccccc3)o2)cc1 | inconclusive: 40.7%

Grouped by structure: the compounds so far with fluorine
Structure (SMILES) | activation
CC(Sc1nc2cc([N+](=O)[O-])ccc2n1-c1cccc(C(F)(F)F)c1)C(=O)NC(N)=O (stereo not drawn) | inconclusive: 41.3%
O=C(Nc1ccc([N+](=O)[O-])cc1)c1ccccc1F | inconclusive: 31.2%
CC(NC(=O)Nc1ccc(O)cc1)(C(F)(F)F)C(F)(F)F | inconclusive: 47%
O=C(Nc1ccc(F)cc1)Nc1cccnc1Cl | inconclusive: 64.7%
CCOC(=O)c1ccc(NC(=S)NCCc2ccccc2F)cc1 | inconclusive: 34.9%
Cc1ccc(S(=O)(=O)NC(C(=O)N2CCN(S(=O)(=O)c3cccc(F)c3)CC2)C(C)C)cc1 (stereo not drawn) | inactive: -0.608%

Following part:

Structure (SMILES) | activation
O=C(Nc1ccc(-c2cnco2)cc1)c1ccc(F)cc1F | inconclusive: 36.7%
Nc1nc(CN2CCCCCC2)nc(Nc2ccc(F)cc2)n1 | inactive: -3.09%
CC1CCN(c2ccc(NC(=O)Cc3ccccc3)cc2)CC1 | inconclusive: 52.5%
O=C(c1ccc2c(c1)OCCCO2)N1CCCCC1 | inactive: 0.744%
CS(=O)(=O)N1CCN(C(=O)C(Sc2ccccc2)c2ccccc2)CC1 (stereo not drawn) | inconclusive: 39.4%
Cc1ccc(OC(=O)COc2ccccc2C)c(-n2nc3ccccc3n2)c1 | inactive: 8.69%
COc1ccc(/C(C)=N/NC(=O)c2ccncc2)cc1[N+](=O)[O-] | inactive: -3.37%
O=C(NCCc1ccccc1)c1ccc(-c2ccccc2C(F)(F)F)o1 | inactive: 18.7%
CC1CN(c2nc3ccccc3nc2SCC(=O)Nc2ccc(F)cc2)CC(C)O1 (stereo not drawn) | inconclusive: 69%
COC(=O)C1=C(N)Oc2cc(C)n(C)c(=O)c2C1c1ccc(Cl)c(Cl)c1 (stereo not drawn) | inactive: 11.7%
Cc1ccc(OCCNC(=O)c2ccc3c(c2)OCO3)cc1 | inconclusive: 43.9%
CO/N=C(/CNC(=O)c1ccccc1Cl)c1ccc(Cl)cc1 | inconclusive: 30.9%
N#CC1(Cc2ccc(Cl)cc2)c2ccccc2C=CN1C(=O)c1ccccc1 (stereo not drawn) | inactive: 0.267%
Cc1ccc(C(=O)N/C(=C/c2ccco2)C(=O)NCCCn2ccnc2)cc1 | inactive: -1.59%
Fc1ccc(Oc2cc(N3CCOCC3)nc(-c3ccccc3)n2)c(F)c1 | inconclusive: 34.5%
CN1C(=O)c2ccc(C(=O)Nc3ccc4c(c3)OCO4)cc2C1=O | inconclusive: 35.6%
FC(F)(F)c1nc2ccccc2nc1N/N=C/c1ccc(Cl)cc1 | inconclusive: 39.1%
COc1ccc(-c2oc3ccccc3c(=O)c2OC(=O)c2ccc(C)cc2)cc1 | inactive: -13.2%
